From PMC10531985

Protein sequences, listed by entry. Tags and fused reporters are not part of them.
UniProt P19338, whole entry: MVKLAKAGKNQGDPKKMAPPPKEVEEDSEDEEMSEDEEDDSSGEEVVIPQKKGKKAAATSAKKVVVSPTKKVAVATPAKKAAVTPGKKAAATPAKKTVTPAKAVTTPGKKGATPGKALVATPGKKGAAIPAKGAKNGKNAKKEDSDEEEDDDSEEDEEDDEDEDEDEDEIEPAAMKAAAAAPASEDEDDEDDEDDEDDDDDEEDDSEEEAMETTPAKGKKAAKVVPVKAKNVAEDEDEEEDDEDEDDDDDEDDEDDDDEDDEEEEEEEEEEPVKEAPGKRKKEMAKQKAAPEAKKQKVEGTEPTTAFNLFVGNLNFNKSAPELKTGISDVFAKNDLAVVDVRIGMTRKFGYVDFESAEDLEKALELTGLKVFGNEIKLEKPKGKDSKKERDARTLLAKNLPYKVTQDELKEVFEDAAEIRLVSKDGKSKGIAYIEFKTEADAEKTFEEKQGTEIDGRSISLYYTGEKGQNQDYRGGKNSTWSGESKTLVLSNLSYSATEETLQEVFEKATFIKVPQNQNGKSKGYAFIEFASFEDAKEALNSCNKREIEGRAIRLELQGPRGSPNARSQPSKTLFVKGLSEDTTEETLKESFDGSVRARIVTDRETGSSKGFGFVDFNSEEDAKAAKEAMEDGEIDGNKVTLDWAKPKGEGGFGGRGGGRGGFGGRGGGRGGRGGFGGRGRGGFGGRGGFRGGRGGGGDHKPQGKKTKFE

What follows are sequences tested against nucleolin (NCL) (Homo sapiens) (UniProt P19338) (assay: SPR). Details: 150 mM KCl, Kd not in text, SPR: 10 mM HEPES, 3 mM EDTA, pH 7.4, NCL on CM5 chip, temperature not stated, recombinant protein.

Binding result, binds:
GUUAGGGUUUAUUGGGAUUG [Apt-4], GUUAGGGUUUAUUUGGGAUUG [Apt-5], GUUAGGGUUUGGGAUUG [Apt-1], GUUAGGGUUUUGGGAUUG [Apt-2], GUUAGGGUUUAUUAUGGGAUUG [Apt-6]

Each sequence was assayed against cell surface nucleolin (UniProt P19338) (assay: competition with a labelled probe). Details: 2 uM aptamer vs anti-NCL antibody, flow cytometry on MCF7, Hela, MDA MB 468; EMSA: 5x binding buffer listed as 40 mM Tris, 30 mM KCl, 1 mM MgCl2, 1 mM DTT, pH 8.0, 200 nM probe, room temperature 25 min, gel with 20 mM KCl at 4 C; protein on the cell surface.

Binding result, binds:
GUUAGGGUUUAUGGGAUUG [Apt-3]

For at least one entry, the source does not settle the construct or the ends of the probe. For part of these data: Results from cells or extracts need not show a direct contact. For part of these data: At least one verdict rests on a figure or table, not on a statement of the authors.
